The list shows a part of the results.
Compound: Cc1cc(ccc1-c1ccccc1)C(=O)N1CCCN(CC1)C(=O)CCl [compound 10]
Test: probe-labelled cysteine peptide fold change vs DMSO (competition) (log2 fold change); higher = less target engagement (more negative = stronger competition)
Details: THP-1, incubation time: 4 h
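Also: competitive profiling in live THP-1 cells: cysteine peptides tagged with an iodoacetamide desthiobiotin (IA-DTB) probe, intensity after compound treatment relative to DMSO-treated cells.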

Sequences of proteins named here, by UniProt entry; tags and fusion partners are left off. A change or cut given only in a name is not applied to a line headed by its entry.
UniProt Q05655: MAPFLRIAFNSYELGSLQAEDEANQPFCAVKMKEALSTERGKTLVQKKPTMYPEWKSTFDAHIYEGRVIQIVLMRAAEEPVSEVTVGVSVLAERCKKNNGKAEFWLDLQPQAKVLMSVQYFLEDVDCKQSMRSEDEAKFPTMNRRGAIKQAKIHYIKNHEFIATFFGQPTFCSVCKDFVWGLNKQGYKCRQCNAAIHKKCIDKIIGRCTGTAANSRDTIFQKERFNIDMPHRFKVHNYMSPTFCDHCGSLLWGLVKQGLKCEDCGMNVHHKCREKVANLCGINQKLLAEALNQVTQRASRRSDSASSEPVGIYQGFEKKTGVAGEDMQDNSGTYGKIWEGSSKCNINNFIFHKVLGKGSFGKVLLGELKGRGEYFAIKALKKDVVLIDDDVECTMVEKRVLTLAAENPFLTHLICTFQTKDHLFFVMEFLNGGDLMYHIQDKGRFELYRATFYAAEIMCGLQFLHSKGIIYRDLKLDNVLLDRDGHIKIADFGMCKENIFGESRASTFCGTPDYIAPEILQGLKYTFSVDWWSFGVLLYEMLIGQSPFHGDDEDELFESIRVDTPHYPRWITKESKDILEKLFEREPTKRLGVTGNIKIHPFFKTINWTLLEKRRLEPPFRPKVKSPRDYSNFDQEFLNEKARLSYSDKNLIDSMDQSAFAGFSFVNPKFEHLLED
UniProt P05771, whole entry, looked up: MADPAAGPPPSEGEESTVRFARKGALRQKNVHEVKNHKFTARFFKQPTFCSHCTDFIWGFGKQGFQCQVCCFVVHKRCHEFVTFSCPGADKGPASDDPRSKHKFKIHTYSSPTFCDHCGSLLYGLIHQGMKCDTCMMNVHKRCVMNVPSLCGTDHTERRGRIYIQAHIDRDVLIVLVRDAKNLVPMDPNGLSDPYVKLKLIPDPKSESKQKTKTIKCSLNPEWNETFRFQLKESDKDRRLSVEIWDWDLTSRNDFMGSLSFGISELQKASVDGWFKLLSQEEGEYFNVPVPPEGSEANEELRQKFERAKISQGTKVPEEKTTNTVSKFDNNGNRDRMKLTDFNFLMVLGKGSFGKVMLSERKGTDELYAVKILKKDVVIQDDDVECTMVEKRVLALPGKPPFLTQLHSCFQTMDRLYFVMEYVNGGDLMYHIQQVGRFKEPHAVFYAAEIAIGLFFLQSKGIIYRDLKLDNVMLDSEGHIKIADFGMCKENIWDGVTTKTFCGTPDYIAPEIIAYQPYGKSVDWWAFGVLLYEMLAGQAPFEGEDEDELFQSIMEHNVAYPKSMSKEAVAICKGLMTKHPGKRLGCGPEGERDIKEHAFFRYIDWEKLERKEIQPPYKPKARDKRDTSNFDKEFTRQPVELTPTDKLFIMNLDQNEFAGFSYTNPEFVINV
UniProt P78527, whole entry, looked up: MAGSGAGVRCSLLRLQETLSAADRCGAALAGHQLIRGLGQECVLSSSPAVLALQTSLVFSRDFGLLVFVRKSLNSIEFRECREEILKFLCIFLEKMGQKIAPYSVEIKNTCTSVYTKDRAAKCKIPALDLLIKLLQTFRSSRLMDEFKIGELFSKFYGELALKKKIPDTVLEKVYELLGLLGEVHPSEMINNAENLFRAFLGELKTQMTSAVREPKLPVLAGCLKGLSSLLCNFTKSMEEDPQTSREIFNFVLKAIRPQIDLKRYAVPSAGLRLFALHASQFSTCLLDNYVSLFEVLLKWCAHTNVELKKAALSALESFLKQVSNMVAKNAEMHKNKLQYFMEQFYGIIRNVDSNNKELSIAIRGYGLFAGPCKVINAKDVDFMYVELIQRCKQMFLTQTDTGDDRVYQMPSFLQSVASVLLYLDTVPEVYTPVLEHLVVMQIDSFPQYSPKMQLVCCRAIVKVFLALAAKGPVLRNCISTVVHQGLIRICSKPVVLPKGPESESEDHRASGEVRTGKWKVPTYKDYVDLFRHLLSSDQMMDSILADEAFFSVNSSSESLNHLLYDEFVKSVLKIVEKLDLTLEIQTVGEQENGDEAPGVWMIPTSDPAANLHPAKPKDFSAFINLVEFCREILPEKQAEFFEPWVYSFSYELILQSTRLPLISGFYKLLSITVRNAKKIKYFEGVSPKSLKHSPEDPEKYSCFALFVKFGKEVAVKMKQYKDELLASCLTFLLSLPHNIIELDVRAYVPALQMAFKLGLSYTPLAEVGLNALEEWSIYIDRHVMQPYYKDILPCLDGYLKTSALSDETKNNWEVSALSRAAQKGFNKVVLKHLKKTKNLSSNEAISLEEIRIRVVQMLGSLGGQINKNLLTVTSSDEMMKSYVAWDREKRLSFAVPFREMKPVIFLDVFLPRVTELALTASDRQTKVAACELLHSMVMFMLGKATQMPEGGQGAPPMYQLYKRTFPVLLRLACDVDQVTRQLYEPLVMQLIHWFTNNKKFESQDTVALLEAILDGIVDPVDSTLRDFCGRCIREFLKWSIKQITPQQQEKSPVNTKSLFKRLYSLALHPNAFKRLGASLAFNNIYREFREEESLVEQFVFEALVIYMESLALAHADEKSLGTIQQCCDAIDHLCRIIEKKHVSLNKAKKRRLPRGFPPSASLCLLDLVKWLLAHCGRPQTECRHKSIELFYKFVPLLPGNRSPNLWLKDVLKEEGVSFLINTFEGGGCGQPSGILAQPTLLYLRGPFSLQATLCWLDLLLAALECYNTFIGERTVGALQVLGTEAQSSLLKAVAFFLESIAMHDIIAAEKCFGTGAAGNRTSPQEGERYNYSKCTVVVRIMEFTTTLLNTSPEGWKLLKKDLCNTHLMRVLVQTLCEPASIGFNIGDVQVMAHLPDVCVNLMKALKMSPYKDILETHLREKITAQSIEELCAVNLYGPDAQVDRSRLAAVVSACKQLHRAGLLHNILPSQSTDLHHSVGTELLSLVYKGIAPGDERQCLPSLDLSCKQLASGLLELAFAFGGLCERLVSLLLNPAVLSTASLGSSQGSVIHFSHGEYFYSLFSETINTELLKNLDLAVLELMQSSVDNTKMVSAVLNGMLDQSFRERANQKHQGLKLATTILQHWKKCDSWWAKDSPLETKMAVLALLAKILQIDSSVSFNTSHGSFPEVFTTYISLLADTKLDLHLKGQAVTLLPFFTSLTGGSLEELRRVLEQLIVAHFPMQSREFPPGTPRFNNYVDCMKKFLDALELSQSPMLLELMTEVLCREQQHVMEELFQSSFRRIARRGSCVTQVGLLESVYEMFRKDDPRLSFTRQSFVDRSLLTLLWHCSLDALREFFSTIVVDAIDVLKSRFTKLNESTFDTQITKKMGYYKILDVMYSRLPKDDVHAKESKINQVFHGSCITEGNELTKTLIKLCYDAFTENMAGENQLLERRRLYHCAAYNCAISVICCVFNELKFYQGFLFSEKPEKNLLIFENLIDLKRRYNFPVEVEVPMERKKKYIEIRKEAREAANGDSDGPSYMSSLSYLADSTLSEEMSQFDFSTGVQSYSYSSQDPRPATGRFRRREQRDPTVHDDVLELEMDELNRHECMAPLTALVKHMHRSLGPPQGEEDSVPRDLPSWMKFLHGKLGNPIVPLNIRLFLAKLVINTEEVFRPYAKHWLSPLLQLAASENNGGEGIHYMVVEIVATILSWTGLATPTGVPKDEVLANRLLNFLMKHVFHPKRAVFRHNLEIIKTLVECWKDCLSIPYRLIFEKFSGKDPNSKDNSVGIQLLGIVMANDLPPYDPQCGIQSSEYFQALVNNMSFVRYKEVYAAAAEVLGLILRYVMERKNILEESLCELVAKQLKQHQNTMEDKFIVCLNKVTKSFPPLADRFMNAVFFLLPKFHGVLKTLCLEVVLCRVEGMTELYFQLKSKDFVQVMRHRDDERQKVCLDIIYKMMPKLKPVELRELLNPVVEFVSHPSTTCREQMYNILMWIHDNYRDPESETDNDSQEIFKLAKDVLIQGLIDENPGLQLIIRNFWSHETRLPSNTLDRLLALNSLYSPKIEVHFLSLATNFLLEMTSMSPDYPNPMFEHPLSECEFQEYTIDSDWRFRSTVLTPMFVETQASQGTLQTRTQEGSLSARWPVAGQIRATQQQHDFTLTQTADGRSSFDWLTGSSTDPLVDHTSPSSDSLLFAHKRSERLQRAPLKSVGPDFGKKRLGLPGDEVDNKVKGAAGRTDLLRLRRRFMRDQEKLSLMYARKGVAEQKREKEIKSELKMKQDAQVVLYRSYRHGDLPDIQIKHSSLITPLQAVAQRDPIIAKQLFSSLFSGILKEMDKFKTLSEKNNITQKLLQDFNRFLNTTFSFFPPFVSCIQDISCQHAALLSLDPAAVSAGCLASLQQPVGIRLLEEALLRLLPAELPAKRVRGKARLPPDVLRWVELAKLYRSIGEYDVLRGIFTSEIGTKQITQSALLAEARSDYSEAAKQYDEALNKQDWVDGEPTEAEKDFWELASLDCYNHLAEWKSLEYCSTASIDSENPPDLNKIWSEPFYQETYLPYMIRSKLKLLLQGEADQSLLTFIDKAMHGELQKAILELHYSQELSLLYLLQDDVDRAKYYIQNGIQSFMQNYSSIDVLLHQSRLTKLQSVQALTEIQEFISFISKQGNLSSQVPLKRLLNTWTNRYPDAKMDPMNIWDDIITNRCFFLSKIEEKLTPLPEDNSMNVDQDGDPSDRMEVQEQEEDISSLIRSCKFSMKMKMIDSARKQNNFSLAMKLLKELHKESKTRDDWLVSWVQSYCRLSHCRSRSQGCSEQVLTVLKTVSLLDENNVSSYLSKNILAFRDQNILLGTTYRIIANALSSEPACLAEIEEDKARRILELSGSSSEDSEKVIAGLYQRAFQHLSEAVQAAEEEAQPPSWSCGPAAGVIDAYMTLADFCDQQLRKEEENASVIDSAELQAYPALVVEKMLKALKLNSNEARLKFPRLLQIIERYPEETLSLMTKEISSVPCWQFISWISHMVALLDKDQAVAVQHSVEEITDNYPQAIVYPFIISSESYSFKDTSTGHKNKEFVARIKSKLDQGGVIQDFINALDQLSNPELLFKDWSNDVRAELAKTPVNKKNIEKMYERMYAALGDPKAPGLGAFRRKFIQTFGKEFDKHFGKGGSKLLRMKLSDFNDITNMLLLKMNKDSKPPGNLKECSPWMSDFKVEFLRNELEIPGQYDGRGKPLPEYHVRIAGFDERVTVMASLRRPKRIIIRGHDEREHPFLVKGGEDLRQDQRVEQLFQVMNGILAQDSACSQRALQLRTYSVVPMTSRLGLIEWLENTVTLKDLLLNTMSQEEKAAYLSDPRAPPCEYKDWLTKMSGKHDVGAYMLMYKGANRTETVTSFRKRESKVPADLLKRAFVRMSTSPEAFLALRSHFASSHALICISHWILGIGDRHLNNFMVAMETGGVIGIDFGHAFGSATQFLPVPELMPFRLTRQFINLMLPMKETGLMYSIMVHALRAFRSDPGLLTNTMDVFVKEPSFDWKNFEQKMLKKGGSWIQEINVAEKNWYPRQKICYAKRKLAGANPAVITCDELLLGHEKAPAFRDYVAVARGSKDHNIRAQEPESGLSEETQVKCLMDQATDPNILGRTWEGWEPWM
UniProt O75569: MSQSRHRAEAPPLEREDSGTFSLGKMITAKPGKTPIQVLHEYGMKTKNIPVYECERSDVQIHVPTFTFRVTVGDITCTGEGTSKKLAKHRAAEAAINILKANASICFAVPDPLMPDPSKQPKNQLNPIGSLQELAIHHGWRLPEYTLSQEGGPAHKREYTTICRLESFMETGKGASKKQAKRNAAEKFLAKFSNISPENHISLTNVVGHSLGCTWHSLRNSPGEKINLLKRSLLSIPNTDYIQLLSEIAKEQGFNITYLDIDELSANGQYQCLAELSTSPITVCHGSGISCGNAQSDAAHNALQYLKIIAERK

Target	probe-labelled cysteine peptide fold change (10 µM)	probe-labelled cysteine peptide fold change (50 µM)
PRPF19_Q9UMS4_230_QVASHVGLHSASIPGILALDLCPSDTNK (UniProt Q9UMS4)	-0.0812	-0.0167
PRKCD_Q05655_172+175_NHEFIATFFGQPTFCSVCK (UniProt Q05655)	-0.461	-0.571
PRKCB_P05771_132+135_CDTCMMNVHKR (UniProt P05771)	-0.193	-0.881
PRPF6_O94906_430_AVECCPTSVELWLALAR (UniProt O94906)	-0.109	0.239
PRR3_P79522_161_SDRPVCR (UniProt P79522)	0.149	-0.0851
PRKDC_P78527_974_LACDVDQVTR (UniProt P78527)	0.168	0.168
PRKDC_P78527_1127+1128_SLGTIQQCCDAIDHLCR (UniProt P78527)	0.347	0.0684
PRSS12_P56730_739_LQGPEEQCAR (UniProt P56730)	-0.0714	0.044
PRKDC_P78527_1128_SLGTIQQCCDAIDHLCR (UniProt P78527)	0.0881	-0.193
PRKDC_P78527_3683_ECSPWMSDFKVEFLR (UniProt P78527)	-0.315	-0.935
PRRC2A_P48634_437_GGPPCKPPAPEDEDEAWR (UniProt P48634)	-0.229	-0.295
PRKAA1_Q13131_425_SQSRPNDIMAEVCR (UniProt Q13131)	-0.0282	-0.0428
PRKAR1A_P10644_18_ECELYVQK (UniProt P10644)	-0.286	-0.532
PRKDC_P78527_111_NTCTSVYTK (UniProt P78527)	-0.255	0.0765
PRKDC_P78527_1127_SLGTIQQCCDAIDHLCR (UniProt P78527)	-0.0104	0.103
PRKCB_P05771_86_CHEFVTFSCPGADK (UniProt P05771)	0.0861	0.103
PRRC2C_Q9Y520_620_QESENSCNKEEEPVFTR (UniProt Q9Y520)	0.0581	-0.121
PSMA2_P25787_213_ESFEGQMTEDNIEVGICNEAGFR (UniProt P25787)	-0.0416	0.0586
PRKCSH_P14314_471_YEQGTGCWQGPNR (UniProt P14314)	-0.163	0.0165
PRPF4_O43172_431_EIYGINFSPNGYHIATGSGDNTCK (UniProt O43172)	0.0874	0.0595
PRKRA_O75569_213_FSNISPENHISLTNVVGHSLGCTWHSLR (UniProt O75569)	-0.0469	-0.293

Target	probe-labelled cysteine peptide fold change (10 µM)	probe-labelled cysteine peptide fold change (50 µM)
PRKCA_P17252_86_CHEFVTFSCPGADKGPDTDDPR (UniProt P17252)	-0.0149	-0.343
PRMT5_O14744_622_VWYEWAVTAPVCSAIHNPTGR (UniProt O14744)	0.25	0.5
PRKCA_P17252_143+151_QCVINVPSLCGMDHTEKR (UniProt P17252)	-0.112	-0.599
PRIM2_P49643_449_YFEMIHNVDDCGFSLNHPNQFFCESQR (UniProt P49643)	-0.247	-0.368
PRMT9_Q6P2P2_310_VIPASAVIFGMAVECAEIR (UniProt Q6P2P2)	0.425	0.559
PRRC2B_Q5JSZ5_1121_EFARPEDCPR (UniProt Q5JSZ5)	-0.251	-0.429
PRKAR2A_P13861_134_LQEACK (UniProt P13861)	-0.239	-0.0313
PRRC2C_Q9Y520_620_QESENSCNK (UniProt Q9Y520)	0.000148	0.376
PRR12_Q9ULL5_112_FVPLTSICFPDSLLQDEER (UniProt Q9ULL5)	0.0521	-0.301
PRMT1_Q99873_360+364_GQLCELSCSTDYR (UniProt Q99873)	0.178	-0.84
PRPF8_Q6P2Q9_547_FGNAFHLCR (UniProt Q6P2Q9)	0.218	0.43
PRKCB_P05771_67_QGFQCQVCCFVVHK (UniProt P05771)	-0.0411	0.0253
PRPF6_O94906_807_ALQECPNSGILWSEAIFLEARPQRR (UniProt O94906)	-0.234	-0.451
PSD4_Q8NDX1_933_SHENCLDAAADDLLDLQR (UniProt Q8NDX1)	-0.308	-0.126
PRKAR1B_P31321_18_GCELYVQLHGIQQVLK (UniProt P31321)	-0.326	-0.34
PRKCD_Q05655_208_CTGTAANSR (UniProt Q05655)	-0.42	-0.345
PRKCB_P05771_132_CDTCMMNVHKR (UniProt P05771)	0.065	-0.464
PRPS1_P60891_265_INNACFEAVVVTNTIPQEDK (UniProt P60891)	0.0817	-0.0107
PRPS2_P11908_226_VAILVDDMADTCGTICHAADK (UniProt P11908)	0.26	-0.25
PRPF6_O94906_550+558_HTWMEDADSCVAHNALECAR (UniProt O94906)	0.0857	-0.191
PRKDC_P78527_3837_APPCEYK (UniProt P78527)	-0.155	-0.0934

Retrieved one by one from the entries so far:
Target	probe-labelled cysteine peptide fold change (10 µM)	probe-labelled cysteine peptide fold change (50 µM)
PSD4_Q8NDX1_933_SHENCLDAAADDLLDLQR (UniProt Q8NDX1)	-0.308	-0.126
PRKCA_P17252_86_CHEFVTFSCPGADKGPDTDDPR (UniProt P17252)	-0.0149	-0.343
